Test results from the supplement of paper PMC4604168 (melanoma cell lines).
This is one part of the list. Many values rest on one well or one pass, so single values are uncertain.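 Cells were imaged in 1,536-well plates, and nuclei stained with an antibody against cleaved PARP were counted against all DNA-stained nuclei to give the apoptosis fraction. Screening doses were chosen to leave most cells alive, and resting and induced cleaved-PARP levels differ strongly between cell lines.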

Tests used:
Assay in all cases: cleaved PARP positive nuclei fraction relative to DMSO control; melanoma cells; higher = more apoptosis
Conditions in all cases: library dose: low library concentration; 72 h
WM115 = test system: WM115
WM1716 = test system: WM1716
WM1745 = test system: WM1745
WM3526 = test system: WM3526
WM3619 = test system: WM3619
WM451Lu = test system: WM451Lu

**Q.** Which “cleaved PARP positive nuclei fraction” value (WM115) does the source give for Cc1cc([N+](=O)[O-])ccc1NS(=O)(=O)c1cc(Cl)ccc1Cl + O=C(Oc1ccc([N+](=O)[O-])cc1)N1CCC(C(O)(c2ccc3c(c2)OCO3)c2ccc3c(c2)OCO3)CC1 [JZL184] (first compound 1 µM, partner dose 1 µM) here?
**A.** 199%

**Q.** What about the “cleaved PARP positive nuclei fraction” value (WM1716) of the same molecule?
**A.** 125%

**Q.** What about the “cleaved PARP positive nuclei fraction” value (WM1745) of the same molecule?
**A.** 111%

**Q.** And the “cleaved PARP positive nuclei fraction” value (WM3526)?
**A.** 64.4%

**Q.** What about the “cleaved PARP positive nuclei fraction” value (WM3619) of the same molecule?
**A.** 84.2%

**Q.** And the “cleaved PARP positive nuclei fraction” value (WM451Lu)?
**A.** 131%

**Q.** With N.N.[Cl][Pt][Cl] [cisplatin] + CNC(=O)c1cc(Oc2ccc(NC(=O)Nc3ccc(Cl)c(C(F)(F)F)c3)cc2)ccn1 [sorafenib] (first compound 1.6 µM, partner dose 0.4 µM) as the molecule, how does the “cleaved PARP positive nuclei fraction” value (WM115) read?
**A.** 136%

**Q.** What about the “cleaved PARP positive nuclei fraction” value (WM1716) of the same molecule?
**A.** 38%

**Q.** And the “cleaved PARP positive nuclei fraction” value (WM1745)?
**A.** 95.3%

**Q.** And the “cleaved PARP positive nuclei fraction” value (WM3526)?
**A.** 84.1%

**Q.** What about the “cleaved PARP positive nuclei fraction” value (WM3619) of the same molecule?
**A.** 105%

**Q.** What about the “cleaved PARP positive nuclei fraction” value (WM451Lu) of the same molecule?
**A.** 138%

**Q.** OCc1c[nH]c2ccccc12 [Indole-3-carbinol] + O=C(Oc1ccc([N+](=O)[O-])cc1)N1CCC(C(O)(c2ccc3c(c2)OCO3)c2ccc3c(c2)OCO3)CC1 [JZL184] (first compound 0.8 µM, partner dose 1 µM) was tested. Which “cleaved PARP positive nuclei fraction” value (WM115) did it give?
**A.** 154%

**Q.** What about the “cleaved PARP positive nuclei fraction” value (WM1716) of the same molecule?
**A.** 70.1%

**Q.** And the “cleaved PARP positive nuclei fraction” value (WM1745)?
**A.** 85.6%

**Q.** And the “cleaved PARP positive nuclei fraction” value (WM3526)?
**A.** 81%

**Q.** What about the “cleaved PARP positive nuclei fraction” value (WM3619) of the same molecule?
**A.** 78.5%

**Q.** And the “cleaved PARP positive nuclei fraction” value (WM451Lu)?
**A.** 34.3%

**Q.** With N.N.[Cl][Pt][Cl] [cisplatin] + Nc1nc(F)nc2c1ncn2[C@@H]1O[C@H](CO)[C@@H](O)[C@@H]1O [fludarabine] (first compound 1.6 µM, partner dose 0.2 µM) as the molecule, how does the “cleaved PARP positive nuclei fraction” value (WM115) read?
**A.** 582%

**Q.** And the “cleaved PARP positive nuclei fraction” value (WM1716)?
**A.** 80.2%

**Q.** And the “cleaved PARP positive nuclei fraction” value (WM1745)?
**A.** 255%

**Q.** What about the “cleaved PARP positive nuclei fraction” value (WM3526) of the same molecule?
**A.** 1180%

**Q.** What about the “cleaved PARP positive nuclei fraction” value (WM3619) of the same molecule?
**A.** 85.3%

**Q.** What about the “cleaved PARP positive nuclei fraction” value (WM451Lu) of the same molecule?
**A.** 165%

**Q.** With Cn1cc(C2=C(c3cn(C4CCN(Cc5ccccn5)CC4)c4ccccc34)C(=O)NC2=O)c2ccccc21 [Enzastaurin] + OCc1c[nH]c2ccccc12 [Indole-3-carbinol] (first compound 0.8 µM, partner dose 0.8 µM) as the molecule, how does the “cleaved PARP positive nuclei fraction” value (WM115) read?
**A.** 111%

**Q.** And the “cleaved PARP positive nuclei fraction” value (WM1716)?
**A.** 124%

**Q.** And the “cleaved PARP positive nuclei fraction” value (WM1745)?
**A.** 92.5%

**Q.** And the “cleaved PARP positive nuclei fraction” value (WM3526)?
**A.** 27.2%

**Q.** And the “cleaved PARP positive nuclei fraction” value (WM3619)?
**A.** 100%

**Q.** And the “cleaved PARP positive nuclei fraction” value (WM451Lu)?
**A.** 88.1%

**Q.** Which “cleaved PARP positive nuclei fraction” value (WM115) does the source give for C[C@@H](N)c1ccc(C(=O)Nc2ccnc3[nH]ccc23)cc1 + Cn1cc(C2=C(c3cn(C4CCN(Cc5ccccn5)CC4)c4ccccc34)C(=O)NC2=O)c2ccccc21 [Enzastaurin] (first compound 0.4 µM, partner dose 0.8 µM) here?
**A.** 45.7%

**Q.** And the “cleaved PARP positive nuclei fraction” value (WM1716)?
**A.** 42.6%

**Q.** And the “cleaved PARP positive nuclei fraction” value (WM1745)?
**A.** 105%

**Q.** And the “cleaved PARP positive nuclei fraction” value (WM3526)?
**A.** 47.6%

**Q.** What about the “cleaved PARP positive nuclei fraction” value (WM3619) of the same molecule?
**A.** 90.7%

**Q.** And the “cleaved PARP positive nuclei fraction” value (WM451Lu)?
**A.** 45.8%

**Q.** Which results are given for N#Cc1c(O)c2c(-c3ccc(-c4ccccc4O)cc3)csc2[nH]c1=O + Cc1cc(SCc2sc(-c3ccc(C(F)(F)F)c(F)c3)nc2C)ccc1OCC(=O)O [GW0742] (first compound 2 µM, partner dose 2 µM)?
**A.** cleaved PARP positive nuclei fraction (WM115): 93.6%; cleaved PARP positive nuclei fraction (WM1716): 165%; cleaved PARP positive nuclei fraction (WM1745): 115%; cleaved PARP positive nuclei fraction (WM3526): 169%; cleaved PARP positive nuclei fraction (WM3619): 82.1%; cleaved PARP positive nuclei fraction (WM451Lu): 864%

**Q.** With CC(C)C[C@H](NC(=O)[C@H](Cc1ccccc1)NC(=O)c1cnccn1)B(O)O [Bortezomib] + N.N.[Cl][Pt][Cl] [cisplatin] (first compound 0.001 µM, partner dose 1.6 µM) as the molecule, how does the “cleaved PARP positive nuclei fraction” value (WM115) read?
**A.** 125%

**Q.** And the “cleaved PARP positive nuclei fraction” value (WM1716)?
**A.** 366%

**Q.** And the “cleaved PARP positive nuclei fraction” value (WM1745)?
**A.** 120%

**Q.** And the “cleaved PARP positive nuclei fraction” value (WM3526)?
**A.** 86.8%

**Q.** What about the “cleaved PARP positive nuclei fraction” value (WM3619) of the same molecule?
**A.** 342%

**Q.** And the “cleaved PARP positive nuclei fraction” value (WM451Lu)?
**A.** 162%

**Q.** With COc1cc(Nc2ncc(F)c(Nc3ccc4c(n3)NC(=O)C(C)(C)O4)n2)cc(OC)c1OC [Tamatinib] + Cc1cc(SCc2sc(-c3ccc(C(F)(F)F)c(F)c3)nc2C)ccc1OCC(=O)O [GW0742] (first compound 0.4 µM, partner dose 2 µM) as the molecule, how does the “cleaved PARP positive nuclei fraction” value (WM115) read?
**A.** 215%

**Q.** And the “cleaved PARP positive nuclei fraction” value (WM1716)?
**A.** 113%

**Q.** What about the “cleaved PARP positive nuclei fraction” value (WM1745) of the same molecule?
**A.** 128%

**Q.** And the “cleaved PARP positive nuclei fraction” value (WM3526)?
**A.** 81.8%

**Q.** What about the “cleaved PARP positive nuclei fraction” value (WM3619) of the same molecule?
**A.** 87%

**Q.** What about the “cleaved PARP positive nuclei fraction” value (WM451Lu) of the same molecule?
**A.** 147%

**Q.** How did the “cleaved PARP positive nuclei fraction” value (WM115) turn out when O=C(Nc1cccc(Cl)c1)Nc1ncc(CCNc2ncnc3ccsc23)s1 + C/C(O)=C(\C#N)C(=O)Nc1cc(Br)ccc1Br [LFM-A13] (first compound 0.0008 µM, partner dose 2 µM) was run?
**A.** 102%

**Q.** And the “cleaved PARP positive nuclei fraction” value (WM1716)?
**A.** 108%

**Q.** And the “cleaved PARP positive nuclei fraction” value (WM1745)?
**A.** 117%

**Q.** And the “cleaved PARP positive nuclei fraction” value (WM3526)?
**A.** 73.9%

**Q.** And the “cleaved PARP positive nuclei fraction” value (WM3619)?
**A.** 102%

**Q.** What about the “cleaved PARP positive nuclei fraction” value (WM451Lu) of the same molecule?
**A.** 110%

**Q.** For C[C@]12O[C@H](C[C@]1(O)CO)n1c3ccccc3c3c4c(c5c6ccccc6n2c5c31)CNC4=O [Lestaurtinib] + C[C@@H](Oc1cc(-c2cnn(C3CCNCC3)c2)cnc1N)c1c(Cl)ccc(F)c1Cl [Crizotinib] (first compound 0.004 µM, partner dose 0.2 µM), which “cleaved PARP positive nuclei fraction” value (WM115) is on record?
**A.** 171%

**Q.** And the “cleaved PARP positive nuclei fraction” value (WM1716)?
**A.** 104%

**Q.** And the “cleaved PARP positive nuclei fraction” value (WM1745)?
**A.** 183%

**Q.** And the “cleaved PARP positive nuclei fraction” value (WM3526)?
**A.** 86.7%

**Q.** What about the “cleaved PARP positive nuclei fraction” value (WM3619) of the same molecule?
**A.** 77.3%

**Q.** What about the “cleaved PARP positive nuclei fraction” value (WM451Lu) of the same molecule?
**A.** 149%

**Q.** How did the “cleaved PARP positive nuclei fraction” value (WM115) turn out when CN(c1ncccc1CNc1nc(Nc2ccc3c(c2)CC(=O)N3)ncc1C(F)(F)F)S(C)(=O)=O + O=C(Oc1ccc([N+](=O)[O-])cc1)N1CCC(C(O)(c2ccc3c(c2)OCO3)c2ccc3c(c2)OCO3)CC1 [JZL184] (first compound 0.08 µM, partner dose 1 µM) was run?
**A.** 64.5%

**Q.** And the “cleaved PARP positive nuclei fraction” value (WM1716)?
**A.** 233%

**Q.** And the “cleaved PARP positive nuclei fraction” value (WM1745)?
**A.** 102%

**Q.** And the “cleaved PARP positive nuclei fraction” value (WM3526)?
**A.** 95.7%

**Q.** What about the “cleaved PARP positive nuclei fraction” value (WM3619) of the same molecule?
**A.** 95.3%

**Q.** And the “cleaved PARP positive nuclei fraction” value (WM451Lu)?
**A.** 1350%

**Q.** Which “cleaved PARP positive nuclei fraction” value (WM115) does the source give for COCC[n+]1c2c(n(Cc3cnccn3)c1C)C(=O)c1ccccc1C2=O + C/C(O)=C(\C#N)C(=O)Nc1cc(Br)ccc1Br [LFM-A13] (first compound 0.0004 µM, partner dose 2 µM) here?
**A.** 139%

**Q.** What about the “cleaved PARP positive nuclei fraction” value (WM1716) of the same molecule?
**A.** 148%

**Q.** And the “cleaved PARP positive nuclei fraction” value (WM1745)?
**A.** 107%

**Q.** What about the “cleaved PARP positive nuclei fraction” value (WM3526) of the same molecule?
**A.** 62.7%

**Q.** What about the “cleaved PARP positive nuclei fraction” value (WM3619) of the same molecule?
**A.** 206%

**Q.** And the “cleaved PARP positive nuclei fraction” value (WM451Lu)?
**A.** 89.8%
